# Assay results published in the supplement of paper PMC7125110.
# ± gives the standard error. Many entries were measured with a wide error.
# B1: glmS ribozyme (parent)
# chain: AUAAAAGCGCCAGAACUACAGAAAUGUAGUUGACGAGGAGGAGGUUUAUCGAAUUUUCGGCGGAUGCCUCCAAA
# Variants of: B1
# Assay: kcat; higher = faster cleavage; RNA array
# Settings: with glucosamine-6-phosphate
# Procedure, shortened: (§1)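 Glucosamine-6-phosphate (40 μM to 10 mM) in HEPES/KCl/Mg(OAc)2 buffer was flowed over sequenced MiSeq chips, and tiles were imaged over ~14 h. Barcoded ribozyme variants there had been transcribed in situ by E. coli RNA polymerase and were tracked through a hybridised Cy3 probe at 37 °C. One- or two-exponential decay fits to per-tile medians, normalised to baseline and to non-cleaving reference variants, gave kobs. kcat and KM came from weighted Michaelis–Menten fits across concentrations.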
row,Variant,kcat [s⁻¹]
1,A14U A53C,0.00136 ± 0.00017
2,A14U A53G,0.0134 ± 0.0067
3,A14U G37A A52G C68G,1.04e-05 ± 7.2e-06
4,A15C U57A C67G,3.31e-05 ± 1.8e-05
5,A15G C16G A42G C67G,0.000168 ± 0.00011
6,A15G U45A,0.152 ± 0.093
7,A15U A53G,0.00765 ± 0.0013
8,A15U A64C,3.64e-05 ± 1.9e-05
9,A15U C71U,0.0101 ± 0.0091
10,A15U G41U A42G U57C C70A,4.33e-05 ± 2.9e-05
11,A15U U65A,0.000377 ± 6.3e-05
12,C16A G51U U69G,6.68e-05 ± 4.7e-05
13,C16G A39C,0.000798 ± 6e-05
14,C16G U46A,0.000198 ± 1.7e-05
15,C16U G37A,0.00345 ± 0.0021
16,C16U U57G U65A C70A,3.5e-05 ± 3.4e-05
17,A20U G32C,0.000241 ± 0.00017
18,G29C G62U,< 1e-05
19,G29C U54A,0.00648 ± 0.0047
20,G29C U54C,0.00154 ± 0.00063

row,Variant,kcat [s⁻¹]
1,G29U C34U C50G C70U,5.76e-05 ± 3.4e-05
2,G29U U69G,5.24e-05 ± 1.4e-05
3,U30A U31A,0.0143 ± 0.0085
4,U30A U56G,0.00495 ± 0.0034
5,U30A U65C,0.000105 ± 8e-06
6,U30C G37U C58A C68G,7.67e-05 ± 5.1e-05
7,U30G A42G,0.0358 ± 0.028
8,U30G A53C,0.00231 ± 0.0004
9,U31A A48C,0.000149 ± 3.3e-05
10,U31A C67A,0.00369 ± 0.0019
11,U31A G32A,0.00184 ± 0.00083
12,U31A U57G,4.33e-05 ± 3.3e-06
13,U31A U65C,0.000791 ± 0.00041
14,U31C U56G,0.00563 ± 0.004
15,U31C U69C,0.00106 ± 0.00057
16,U31G A39G,0.0429 ± 0.027
17,U31G G32A,0.00438 ± 0.0035
18,U31G U55G,0.0235 ± 0.016
19,G32A C71U,0.00395 ± 0.001
20,G32U C50G,2.96e-05 ± 1.7e-05

row,Variant,kcat [s⁻¹]
1,G32U G63C C71G,6.29e-05 ± 4.6e-05
2,G32U U46C,0.000671 ± 0.00047
3,A33C A36C,< 1e-05
4,A33C A53G,0.000631 ± 0.0004
5,A33G A36U,1.1e-05 ± 6.8e-06
6,A33U A53U U69G,4.06e-05 ± 2.5e-05
7,A33U C34G,< 1e-05
8,A33U G51A,< 1e-05
9,G35A U47A C50G U54G,5.89e-05 ± 4.8e-05
10,A36C U54A,< 1e-05
11,G37A A53G,0.00824 ± 0.0053
12,G37A U45C,0.000199 ± 0.00011
13,G37A U47G U55G,0.000459 ± 0.00013
14,G37A U65A,0.000179 ± 2.2e-05
15,G37C C61G,< 1e-05
16,G37C G38A,1.34e-05 ± 1e-05
17,G37U C50U C70U,3.99e-05 ± 1.4e-05
18,G37U C67A,< 1e-05
19,G37U C70U C71U,1.13e-05 ± 3.2e-06

# Taken from above.
# kcat [s⁻¹] with G37A A53G is entered as 0.00824 ± 0.0053
# kcat [s⁻¹] with G37C C61G is entered as < 1e-05
# kcat [s⁻¹] with G37U C50U C70U is entered as 3.99e-05 ± 1.4e-05
# kcat [s⁻¹] with A36C U54A is entered as < 1e-05
# kcat [s⁻¹] with A33U A53U U69G is entered as 4.06e-05 ± 2.5e-05
# kcat [s⁻¹] with A33G A36U is entered as 1.1e-05 ± 6.8e-06
# kcat [s⁻¹] with G32U U46C is entered as 0.000671 ± 0.00047

# Variants of: B1
# Assay: KM; higher = weaker cofactor use; RNA array
# Settings: with glucosamine-6-phosphate
# Procedure, shortened: as §1
row,Variant,KM [µM]
1,A14U A53C,1970 ± 410
2,A14U A53G,4790 ± 3200
3,A15G U45A,5160 ± 3500
4,A15U A53G,1990 ± 520
5,A15U A64C,10800 ± 10000
6,A15U U65A,1080 ± 410
7,C16G A39C,2400 ± 310
8,C16G U46A,676 ± 180
9,C16U G37A,3880 ± 2900
10,G29C U54C,1640 ± 1000
11,U30A U31A,1810 ± 1500
12,U30A U56G,2980 ± 2600
13,U30A U65C,2860 ± 590
14,U30G A42G,6750 ± 6400
15,U30G A53C,2690 ± 910
16,U31A A48C,1780 ± 980

row,Variant,KM [µM]
1,U31A C67A,1610 ± 1100
2,U31A G32A,5430 ± 3400
3,U31A U57G,2970 ± 780
4,U31A U65C,10800 ± 7800
5,U31C U69C,2610 ± 2100
6,U31G A39G,4690 ± 3200
7,U31G U55G,3760 ± 3100
8,G32A C71U,4470 ± 1500
9,G32U U46C,39500 ± 34000
10,A33C A53G,17400 ± 14000
11,A33U G51A,394 ± 130
12,G37A A53G,6050 ± 4500
13,G37A U45C,3830 ± 3500
14,G37A U47G U55G,2730 ± 1400
15,G37A U65A,4340 ± 1300

# Variants of: B1
# Assay: self-cleavage kobs at 10000 uM GlcN6P; higher = faster cleavage; RNA array
# Settings: with glucosamine-6-phosphate
# Procedure, shortened: as §1
row,Variant,self-cleavage kobs at 10000 uM GlcN6P [s⁻¹]
1,A15U G41U A42G U57C C70A,2.7e-05 ± 1.6e-05
2,G29U C34U C50G C70U,2.4e-05 ± 1.6e-05
3,U30A U56G,0.00943 ± 0.0064
4,U31G A39G,0.077 ± 0.064

# Variants of: B1
# Assay: self-cleavage kobs at 40 uM GlcN6P; higher = faster cleavage; RNA array
# Settings: with glucosamine-6-phosphate
# Procedure, shortened: as §1
row,Variant,self-cleavage kobs at 40 uM GlcN6P [s⁻¹]
1,C16G A39C,1.31e-05 ± 1.1e-05
2,G29U C34U C50G C70U,2.08e-05 ± 1.5e-05
3,U30A U56G,6.91e-05 ± 3.7e-05
4,U30G A53C,1.69e-05 ± 1.2e-05
5,U31A G32A,1.69e-05 ± 1.3e-05
6,U31G G32A,1.39e-05 ± 1.1e-05
7,G32U C50G,2.31e-05 ± 1.6e-05
8,G35A U47A C50G U54G,3.13e-05 ± 2.3e-05

# Variants of: B1
# Assay: self-cleavage kobs at 640 uM GlcN6P; higher = faster cleavage; RNA array
# Settings: with glucosamine-6-phosphate
# Procedure, shortened: as §1
row,Variant,self-cleavage kobs at 640 uM GlcN6P [s⁻¹]
1,C16U U57G U65A C70A,5.74e-05 ± 3.6e-05
2,U30A U65C,2.31e-05 ± 1.9e-05
3,G37A U65A,1.74e-05 ± 1.1e-05

# Variants of: B1
# Assay: self-cleavage kobs at 2500 uM GlcN6P; higher = faster cleavage; RNA array
# Settings: with glucosamine-6-phosphate
# Procedure, shortened: as §1
row,Variant,self-cleavage kobs at 2500 uM GlcN6P [s⁻¹]
1,U31A U57G,2.08e-05 ± 1.9e-05
2,G32U C50G,0.000336 ± 0.00024
3,G37U C50U C70U,4.92e-05 ± 2.7e-05
